Measured values as given in paper PMC7811004.

Chains of the proteins cited; added tags and fusions are not shown. Lines headed by an entry give the natural chain unless they say otherwise; changes in a name come on top. Residues count along the entry.
UniProt P07585, residues 31-359: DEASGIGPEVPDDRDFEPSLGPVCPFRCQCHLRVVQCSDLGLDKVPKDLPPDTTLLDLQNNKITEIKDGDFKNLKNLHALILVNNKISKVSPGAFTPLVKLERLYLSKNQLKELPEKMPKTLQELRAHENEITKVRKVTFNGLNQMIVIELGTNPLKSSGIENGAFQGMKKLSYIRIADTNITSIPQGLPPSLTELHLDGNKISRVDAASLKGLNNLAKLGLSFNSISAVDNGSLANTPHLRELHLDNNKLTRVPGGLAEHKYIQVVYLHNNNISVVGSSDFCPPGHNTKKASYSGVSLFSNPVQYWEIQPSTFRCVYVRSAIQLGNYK
UniProt P12830: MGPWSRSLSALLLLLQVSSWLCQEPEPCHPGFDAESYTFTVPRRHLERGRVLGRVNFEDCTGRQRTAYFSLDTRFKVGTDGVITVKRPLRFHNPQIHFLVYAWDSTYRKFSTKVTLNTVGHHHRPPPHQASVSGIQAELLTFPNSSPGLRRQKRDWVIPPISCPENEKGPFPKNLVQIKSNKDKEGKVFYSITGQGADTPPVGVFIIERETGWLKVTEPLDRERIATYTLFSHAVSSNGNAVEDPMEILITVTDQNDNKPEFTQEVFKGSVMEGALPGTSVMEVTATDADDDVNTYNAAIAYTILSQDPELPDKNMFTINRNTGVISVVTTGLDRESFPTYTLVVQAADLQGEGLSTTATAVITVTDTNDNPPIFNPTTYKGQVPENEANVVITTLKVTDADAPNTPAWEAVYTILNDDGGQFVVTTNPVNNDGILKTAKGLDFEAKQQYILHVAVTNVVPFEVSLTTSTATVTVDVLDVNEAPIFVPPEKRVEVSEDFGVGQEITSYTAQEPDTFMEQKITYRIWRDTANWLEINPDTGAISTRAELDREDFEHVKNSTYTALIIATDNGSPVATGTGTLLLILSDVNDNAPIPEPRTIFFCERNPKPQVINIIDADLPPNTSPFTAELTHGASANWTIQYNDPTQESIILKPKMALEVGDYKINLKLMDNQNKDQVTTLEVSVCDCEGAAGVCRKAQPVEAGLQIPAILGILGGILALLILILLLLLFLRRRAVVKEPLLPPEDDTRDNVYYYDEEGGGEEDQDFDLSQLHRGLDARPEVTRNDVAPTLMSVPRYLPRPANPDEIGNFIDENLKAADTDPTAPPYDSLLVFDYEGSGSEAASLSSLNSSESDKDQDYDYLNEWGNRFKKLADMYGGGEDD

What was measured:
[1] = molecular target: hemagglutinin (HA)-tagged decorin (DCN), full length (human) (UniProt P07585); test: co-IP; HEK293T cells, exogenous tagged proteins, reciprocal immunoprecipitation and immunoblot (Supplementary Fig. 9)
[2] = molecular target: hemagglutinin (HA)-tagged decorin (DCN), full length (human) (UniProt P07585); test: co-IP; IBC cell lines (MDA-IBC3, SUM190, SUM149, BCX010) transfected with HA-tagged DCN or Flag-tagged E-cadherin; whole-cell lysates (1x RIPA buffer); immunoprecipitation with anti-HA or anti-Flag antibody, immunoblot
[3] = molecular target: Flag/Strep double-tagged E-cadherin (human) (UniProt P12830); test: co-IP; HEK293T cells, exogenous tagged proteins, reciprocal immunoprecipitation and immunoblot (Supplementary Fig. 9)
[4] = molecular target: Flag/Strep double-tagged E-cadherin (human) (UniProt P12830); test: co-IP; IBC cell lines (MDA-IBC3, SUM190, SUM149, BCX010) transfected with HA-tagged DCN or Flag-tagged E-cadherin; whole-cell lysates (1x RIPA buffer); immunoprecipitation with anti-HA or anti-Flag antibody, immunoblot

Row | Substance | binding [1] | binding [2] | binding [3] | binding [4]
1 | Flag/Strep double-tagged E-cadherin (from UniProt P12830) | binds | binds | – | –
2 | hemagglutinin (HA)-tagged decorin (DCN), full length (from UniProt P07585 31-359) | – | – | binds | binds

Results are given in words; binding and its absence hold for the method and conditions named. Binding seen in cells or lysates may run through a third protein. Binding calls can cover weak binding; strength is not graded here.
